Data taken from ChEMBL document CHEMBL3988442, “University of Dundee, Small-Polar-MMV Screening Library” (2021).

A: 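Whole-cell assay for inhibitors of Mycobacterium tuberculosis growth, labelled Cornell in the record; the read-out is not stated. The concentration is filed as 10 mM, unlikely as a test dose, so the dose is not known. Higher means stronger inhibition (inferred from two other growth screens of the library). About 53,000 compounds were tested under these conditions; 1.7% (about 900) showed 50% or more at least once.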
B: 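Assay on Mycobacterium tuberculosis, filed only as a heat shock assay from Cornell; the read-out is not stated. The concentration is filed as 10 mM, unlikely as a test dose, so the dose is not known. Direction is inferred from retests: higher values go with stronger inhibition. About 69,000 compounds were tested under these conditions; 1.4% (about 930) showed 50% or more at least once.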

Results are given as percent effect.
The record does not define 0% and 100%; most values in the screen are far below 50% and negative numbers occur (in some assays of this library far below -100).
Compounds were drawn at random from those tested, without regard to their results.
A dash means the value is not listed here; it may have been measured.

Compound,A,B
Cn1/c(=N/C(=O)CSCC(=O)Nc2nccs2)sc2ccccc21,-22.57%,12.76%
COc1cccc2c3c(c(=O)n(C)c12)CCC(C)(C)O3,52.61%,-3.574%
CN(c1ncnc2sccc12)C1CCCN(c2cccnn2)C1 (stereo unspecified),11.83%,-22.48%
Cc1nccn1-c1cncc(C2CCCN2Cc2cccnc2)n1 (stereo unspecified),-,-33.01%
[H][C@]12CC[C@]([H])(CN(S(C)(=O)=O)C1)N(Cc1csc(C(C)=O)c1)C2,-12.62%,74.41%
CC(C)(C)c1c[nH]c([C@@H]2COCCN2C2CCCCC2)n1,12.45%,-5.989%
CC(C)c1cc(NCC2(N(C)C)CCCC2)ncn1,-39.92%,-10.5%
COCCNC(=O)c1cc2c(s1)CCN2S(C)(=O)=O,-13.28%,-29.7%
O=C(NCc1nnc2n1CCCCC2)N1CCc2sccc2C1,-,4.103%
[H][C@]12CN(Cc3cccc(F)c3)CC[C@@]1(O)CCN(S(=O)(=O)N(C)C)C2,2.641%,-26.18%
COc1ccc2[nH]c3c(N(C)CC4OCCO4)ncnc3c2c1,24.61%,11.53%
CC(C)CC(O)C1CCN(C(=O)c2ccc(C(C)C)[nH]c2=O)CC1 (stereo unspecified),-2.618%,-20.61%
[H][C@]12CN(CCOC)C(=O)[C@@]1([H])CN(c1ncccn1)C2,12.64%,4.502%
Cc1ccc(C)c(NC(=O)Cn2cc(I)cn2)c1,18.39%,11.43%
O=C(CCn1ncc2c(Cl)cccc21)NCCCO,-,3.276%
Cc1cnn(CC2CCCN2C(=O)c2ccc3cc[nH]c3c2)c1 (stereo unspecified),-,-5.372%
CC(C)CC(CCO)CNC(=O)N1CCC1(C)C (stereo unspecified),8.909%,1.431%
Cc1ccc(-c2ncc(C(=O)NCCS(N)(=O)=O)s2)c(C)c1,15.74%,32.51%
CC(C)[C@@H](CO)Nc1cc(-c2cn[nH]c2)ncn1,-33.74%,-12.64%
Cc1ccc(C(=O)N(C)Cc2nccn2CC(F)(F)F)cn1,-,-17.88%
CN(Cc1cccc(F)c1)C(=O)CN1CCCC(Cn2cncn2)C1 (stereo unspecified),-,-7.936%
CN(CCN1CCOC1=O)CC(=O)Nc1cc(F)cc(F)c1,-4.563%,18.59%
CNC(=O)CN1CCC(CN(C)Cc2ccccc2N(C)C)CC1,13.23%,-30.25%
COc1ccnc(N2Cc3cnc(C(C)(C)C)nc3C2)n1,15.27%,14.25%
CCCN1CCc2[nH]nc(C(=O)N3CCNC(=O)C3)c2C1.O=C(O)C(F)(F)F.O=C(O)C(F)(F)F,16.82%,-5.766%
Cc1c(Br)cc2c(c1C)OCC(N(C)C)C2=O (stereo unspecified),-34.79%,-17.25%
CS(=O)(=O)NCC1CCCCN1C(=O)c1cccc(C(F)(F)F)c1 (stereo unspecified),-6.123%,-2.043%
[H][C@]12CCN(C(=O)N3CCOCC3)C[C@@]1([H])OCCN(S(C)(=O)=O)C2,-27.96%,22.08%
COC1(CNC(=O)c2ccoc2)CCSC1 (stereo unspecified),-5.057%,-0.06715%
O=C(COCC1CC1)Nc1ncccc1I,-4.664%,21.18%
OCc1csc(N2CCCN(Cc3ccc(F)cc3)CC2)n1,6.185%,-26.56%
[H][C@]12CCC[C@@]1(COCc1ccccn1)CN(C(=O)Cc1ccsc1)C2,-23%,46.27%
CC(=O)NCCNCC1(O)CCCN(CCC2CCCCC2)C1=O (stereo unspecified),1.926%,3.66%
Cc1nc(C)n(CC2CCCCN2Cc2nc(-c3ccco3)no2)n1 (stereo unspecified),-,-16.23%
O=C(CCn1ccccc1=O)N1CCN(Cc2cccc(Cl)c2)CC1,-,0.8124%
Cc1ccc(OCCN(C)S(=O)(=O)N2CCOCC2)cc1,5.743%,5.526%
O=C(O)C(F)(F)F.O=C(O)C(F)(F)F.[H][C@]12CCN(c3ccc(C)nn3)[C@@]1([H])CC[C@H](COCc1cccnc1)O2,-26.29%,-24.9%
CC(C)NC(=O)C1(Cc2ccccc2-c2cccs2)CCNC1 (stereo unspecified),-13.37%,-1.048%
CCCN1CCC(Cc2noc(-c3ncccc3C)n2)CC1,-0.7819%,7.423%
CC(C)CCC(=O)N1CCCC1c1nnc2n1CCCCC2 (stereo unspecified),5.047%,1.285%
[H][C@@]12CS(=O)(=O)C[C@]1([H])N(C(=O)c1ccc3nc(C)oc3c1)CCN2CCO,-8.537%,5.772%
Cn1cncc1C(=O)N1CCCC(c2ccn[nH]2)C1 (stereo unspecified),3.412%,-2.165%
COCCNc1nc(-n2nc(C)cc2C)nc2sc3c(c12)CCCC3,-12.48%,40.33%
Cc1nnc(CN2CCCC2c2c(C)nn(C)c2Cl)o1 (stereo unspecified),-15.83%,-5.689%
CC(C(=O)N1CCc2ccccc2C1)N(C)Cc1cscn1 (stereo unspecified),11.17%,-0.6377%
COCCn1cc2c(n1)C(CNCc1ccsc1)OCC2.O=C(O)C(F)(F)F (stereo unspecified),-,-21.86%
CCCn1ccnc1CN1CCC(O)(CN2CCCCC2)C1 (stereo unspecified),-5.98%,1.68%
O=C(C1CCCCC1)N1CCC2(CC1)OCCO2,17.68%,21.91%
Cl.FC(F)CNc1cnc(C2CCNCC2)cn1,41.45%,9.975%
[H][C@@]12CCCN1C[C@H](CCSC)N(Cc1cnn(C=C)c1C)C2,-11.11%,-3.579%
CN(Cc1cnn(C)c1)S(=O)(=O)N1CCCC1c1ccco1 (stereo unspecified),-1.509%,-3.349%
CS(=O)(=O)CCC(=O)N(Cc1c(F)cccc1F)C1CCCC1,9.785%,9.305%
CC(C)c1nnc2n1CCN(CCC(=O)Nc1sccc1C#N)C2,-,-5.5%
CN(Cc1cccc(-n2cccn2)c1)Cc1cccs1,36.92%,17.12%
[H][C@@]12CCCO[C@]1([H])[C@H](OCc1ccccn1)CN2S(=O)(=O)N(C)C,-28.1%,32.95%
O=C(Cc1ccccn1)N1CCC2(CC1)CN(c1ncccn1)CCO2.O=C(O)C(F)(F)F.O=C(O)C(F)(F)F,8.006%,2.213%
COCC(=O)N(C)Cc1ccc(F)c(F)c1,-4.158%,-10.36%
COc1cccc(N2CCN(C(=O)C(C)Oc3ccccc3)CC2=O)c1 (stereo unspecified),-21.14%,-4.358%
N#Cc1cccc(CN(CC(=O)N2CCCC2)CC2CCCO2)c1 (stereo unspecified),6.827%,-3.047%
COCCNC(=O)CN1CC=C(n2c(C)nc(=O)c3ccccc32)CC1,0.5793%,-13.24%
CC(C)NC(=O)c1ccc2c(c1)C(c1nc[nH]n1)CN2S(C)(=O)=O (stereo unspecified),10.6%,-9.909%
COc1cc(CCC(=O)N2CCC(c3cc4nccnc4[nH]3)CC2)on1,16.88%,3.99%
CCCN(CC(F)F)c1cc(COC)nc2ncnn12,-,-8.733%
O=C(NC1CCCC1)c1nc2c(o1)CN(C(=O)CCO)C2,-16.78%,6.229%
CCCc1nc(CN(CC)Cc2ccc(S(C)(=O)=O)cc2)no1,-16.64%,-13.02%
Cn1cc(N2CC3(CCN(Cc4ccoc4)CC3)OCC2=O)cn1.O=C(O)C(F)(F)F,28.91%,-45.11%
CS(=O)(=O)c1cccc(C(=O)NCc2nc3cc(F)ccc3[nH]2)c1,5.966%,2.555%
O=C(CC1OCCc2ccccc21)NCC1(O)CCCCC1 (stereo unspecified),-,6.849%
CNS(=O)(=O)c1ccc(CN2CCCN(CC(C)C)CC2)cc1,-26.47%,6.696%
O=C(O)C(F)(F)F.O=C(O)C(F)(F)F.c1ccc(OCc2nnc3n2CCN(CC2CCOCC2)C3)nc1,-1.785%,-2.233%
CC(=O)N1CCCN(C(=O)Cc2c(C)nc(C)[nH]c2=O)CC1,-7.565%,1.86%
O=C(Cn1nc2ccccc2n1)N1CCCC(O)(CO)C1 (stereo unspecified),-,-98.61%
COc1c(C)cnc(CN2CCC(N(C)C(=O)C(C)OC)CC2)c1C (stereo unspecified),-,-15.84%
Cc1c(C(=O)N2CCCC(n3cccn3)C2)nnn1-c1ccccc1 (stereo unspecified),-51.22%,-25.96%
O=C(c1ncc[nH]1)N1CCC(Cn2cc(-c3cccc(Cl)c3)nn2)CC1,23.03%,-11.27%
COc1ccc(C(=O)N(C)Cc2cc(C)on2)c(F)c1,18.56%,-16.74%
COc1cccc(C2CCCN2C(=O)c2cc3c([nH]c2=O)CCC3)c1 (stereo unspecified),24.32%,21.48%
COCC(Nc1ncnc2sc(C(=O)O)c(C)c12)c1ccnn1C (stereo unspecified),26.21%,-11.12%
CN1CCC(c2cc(CCO)ncn2)C1 (stereo unspecified),-9.182%,1.934%
Cc1cccc(N2N=C(C(=O)NC(C)CCc3ccco3)CCC2=O)c1 (stereo unspecified),-0.3434%,1.415%
O=C(Nc1ccc(CCN2CCC(O)CC2)cc1)C1CCOCC1,5.737%,0.8037%

Once more, the final 5:

| Compound | A | B |
|---|---|---|
| `COc1cccc(C2CCCN2C(=O)c2cc3c([nH]c2=O)CCC3)c1` (stereo unspecified) | 24.32% | 21.48% |
| `COCC(Nc1ncnc2sc(C(=O)O)c(C)c12)c1ccnn1C` (stereo unspecified) | 26.21% | -11.12% |
| `CN1CCC(c2cc(CCO)ncn2)C1` (stereo unspecified) | -9.182% | 1.934% |
| `Cc1cccc(N2N=C(C(=O)NC(C)CCc3ccco3)CCC2=O)c1` (stereo unspecified) | -0.3434% | 1.415% |
| `O=C(Nc1ccc(CCN2CCC(O)CC2)cc1)C1CCOCC1` | 5.737% | 0.8037% |